# Experimental data from PubChem BioAssay AID588497 (NMMLSC, 2011).
# Values joined by “and” are separate entries in the source; they are usually repeats but may differ in a detail not shown here. Identical values can stand only once. Among all 360,000 compounds or so, about 780 (0.22%) were called active. The shares of active, inactive and inconclusive entries below differ from those in the screen. Cut-off read from the data, not from the text of the source: active = inhibition above about 35% (passing the limit was not always enough); inconclusive = no clear call, values can overlap the other calls. Some structures have more than one record in an assay (separate samples or runs), and their calls can disagree.
# System: Botulinum neurotoxin type F light chain protease (Clostridium botulinum)
# Experiment: BoNT/F light chain protease inhibitors, primary screen, biochemical, flow cytometry, MLPCN library (AID 588497); note: plate controls were buffer without enzyme for full effect and enzyme alone for no effect
# Conditions: Multiplex microsphere protease cleavage assay, at 10 µM, stronger effect = higher value
row,SMILES,inhibition
1,O=C(NCc1ccc2c(c1)OCO2)C1COc2ccccc2O1 (stereo not given),inconclusive: 16.9%
2,O=C(Nc1ccc(F)c(Cl)c1)C1CCCC1,inconclusive: -30.9%
3,CC(NC(=O)/C(C#N)=C/c1ccc(OCC(=O)O)cc1)c1ccccc1 (stereo not given),inconclusive: -10.7%
4,Cc1nc(SCC(N)=O)c([N+](=O)[O-])[nH]1,inactive: -0.4%
5,CC(C)n1c(SCC(=O)Nc2ccccc2N2CCOCC2)nc2c1c(=O)n(C)c(=O)n2C,inconclusive: 15.9%
6,COC(=O)c1ccc(NC(=S)NC(=O)c2c(-c3ccccc3)noc2C)cc1,inconclusive: 82.4%
7,COc1cc(NC(=O)NCC2CCN(Cc3ccccc3Cl)CC2)cc(OC)c1OC,inconclusive: -26%
8,COCCn1c(SCC(=O)Nc2ccccc2OC)nc2ccccc2c1=O,inconclusive: -6.4%
9,Cc1cccc(CC(C)NC(=O)c2oc3c(F)cccc3c2C)n1 (stereo not given),inconclusive: 3%
10,COc1ccccc1Cc1c(-c2ccc(Cl)cc2)nc2ccc(Br)cn12,inactive: 8.3%
11,Cc1ccc(C)c2c1N(Cc1ccccc1)C(=O)C21OCCO1,inconclusive: -25.9%
12,O=C1c2ccccc2C(=O)N1CC(O)COc1ccc(Br)cc1 (stereo not given),inconclusive: 0.2%
13,C[n+]1ccccc1/C=C/c1ccc2ncccc2c1,inconclusive: 27.5%
14,N#CCSc1nc2c(sc(=S)n2Cc2ccco2)c(=O)n1-c1ccc(F)cc1,inactive: -5.3%
15,COC(=O)c1c(C)[nH]c(C=Nc2ccc(OC)cc2)c1C,inconclusive: 16%
16,CC(C)C(NS(=O)(=O)c1ccccc1)C(=O)N1CCCCCC1 (stereo not given),inconclusive: 16%
17,COc1cc(OC)cc(C(=O)NCc2ccc3c(c2)OCO3)c1,inconclusive: -12.1%
18,CC(C)(C)n1nnnc1C(c1ccccc1)N1CCN(CCN2CCOCC2)CC1 (stereo not given),inactive: 0.1%
19,COC(=O)CCc1c(C)nn(-c2ccccc2)c1C,inconclusive: 2.5%
20,CCOC(=O)C1CCN(S(=O)(=O)c2ccc(Cl)s2)CC1,inactive: -0.2%

row,SMILES,inhibition
1,Cc1ccc2[nH]c(=O)c3cc(C(=O)NCCC(C)C)sc3c2c1,active: 41.4%
2,CCCN1CCN(C(=O)c2cc3c(s2)-c2ccccc2OC3)CC1,inactive: 1.2%
3,CCOC(=O)C1C(=O)C=C(/C=C/c2ccc(N(C)C)cc2)CC1c1ccccc1 (stereo not given),inactive: 3%
4,COc1ccc(NC(=O)c2ccc(S(=O)(=O)N3CCOCC3)o2)cc1,inconclusive: 33.5%
5,O=c1cc(C(F)(F)F)[nH]c2ccc(C(F)(F)F)cc12,inconclusive: -52.1%
6,CCCCOc1ccc(N2C(N)=NC(N)=NC23CCCCC3)cc1,inconclusive: -22.8%
7,COc1cc2c(cc1OC)-c1cc(OCCN3CCOCC3)nc(=O)n1CC2,inactive: -2.5%
8,COc1ccc(NC(=O)CN(C)C(=O)c2cc(-c3ccc(C)o3)nc3ccccc23)cc1,inconclusive: 27.1%
9,Nc1ccc(C(=O)C(=O)c2ccc(N)cc2)cc1,inconclusive: 2%
10,COc1cc2[nH]c(=O)n(CCCCCC(=O)N3CCN(c4ccccn4)CC3)c(=O)c2cc1OC,inconclusive: -6.7%
11,CCOC(=O)C1CCN(C(=O)c2cc(S(=O)(=O)N3CCCCCC3)ccc2OC)CC1,inconclusive: -4.4%
12,CCOc1cc(/C=C(/NC(C)=O)C(=O)O)cc(Cl)c1OCc1cccc(Br)c1,inactive: 7.6%
13,O=c1nc(N2CCCC2)nc(N2CCCC2)[nH]1,inconclusive: -38.4%
14,CC(C)N1CCN(C(=O)c2cccc(Cl)c2)CC1,inconclusive: 20%
15,O=S(=O)(c1ccccc1Oc1ccc(Cl)cc1Cl)N1CCCCC1,inconclusive: 35.3%
16,C=CCn1c(=S)sc2c(=O)[nH]cnc21,inconclusive: -40%
17,FC(F)(F)c1ccc(CNCCc2ccc3c(c2)OCO3)cc1,active: 71.4%
18,COC(=O)c1sccc1NC(=S)N1C(C)CCCC1C (stereo not given),inactive: -7.7%
19,Nc1nc2c(s1)CCCCCCCCCC2,inconclusive: 32.1%
20,Cc1cccc(NC(=O)Cc2ccc(Br)cc2)n1,inconclusive: 0.9%

row,SMILES,inhibition
1,O=C(NCCc1ccco1)C(=O)NCC1CCCN1S(=O)(=O)c1ccccc1 (stereo not given),inconclusive: -4.5%
2,COc1ccc(CNC(=O)c2cccc(NC(=O)c3ccccc3)c2)cc1,active: 40.2%
3,COc1ccc(Cl)cc1C(=O)NCCCn1ccnc1,inconclusive: -37%
4,O=C(Nc1ccc(Cl)cc1)c1ccco1,inconclusive: 18.9%
5,CCc1ccc(/C=N/N2CCN(c3ccccn3)CC2)cc1,inconclusive: -14.5%
6,CC(C)c1ccc(NC(=S)NC2CC3C=CC2C3)cc1 (stereo not given),inconclusive: -0.4%
7,Cc1cc(C)n2c(C)nnc2c1,inconclusive: -183%
8,COc1ccc(-c2cnc(N)nc2-c2ccc(OCc3ccccc3)cc2O)cc1,inactive: 0.3%
9,CC(=O)Nc1cccc(C(=O)/C=C/c2ccc[nH]2)c1,inconclusive: 144%
10,O=C(O)c1ccccc1-c1c2cc(I)c(=O)c(I)c-2oc2c(I)c(O)c(I)cc12,active: 38.2% and inactive: 25.2%
11,CC(C)NC(=O)c1csc([C@@H]2O[C@H](CO)[C@H](O)[C@H](O)[C@H]2O)n1,inactive: 3.6%
12,O=C(c1ccc([N+](=O)[O-])o1)N1CCc2ccccc21,inconclusive: -17%
13,CN(Cc1ccc(F)cc1)C(=O)c1ccc(NC(=O)CC2SC(N3CCCC3)=NC2=O)cc1 (stereo not given),inconclusive: 29.4%
14,NC(Cc1ccccc1)c1nc2ccccc2[nH]1 (stereo not given),inconclusive: -22.1%
15,CCC1CCCCN1S(=O)(=O)c1ccc(NC(=O)C2CCCO2)cc1 (stereo not given),inactive: 2.4%
16,COCc1cc(=O)n2[nH]c(-c3ccsc3-n3c(C)ccc3C)cc2n1,inconclusive: -17.1%
17,COc1cccc(NC(=O)C2=COCCO2)c1,inconclusive: 6.5%
18,Cn1cccc1/C=N/NC(=O)c1cc(-c2cccs2)nc2ccccc12,inactive: -5.6%
19,OCc1ccc(-c2ccccc2)c(-c2ccccc2)c1,inconclusive: 24.7%
20,CN(n1cnc2ccccc2c1=O)S(C)(=O)=O,inconclusive: 19.7%
